Experimental data taken from publication PMC8606588.
These are yes or no findings as the source states them, for the method shown. In cells and extracts the contact can be indirect. Some results given as binding are weak or reduced against the parent protein; the word gives no strength.

Amino acid sequences for entries named in this document (tags omitted). Residues count along the entry.
UniProt P13473, residues 29-410: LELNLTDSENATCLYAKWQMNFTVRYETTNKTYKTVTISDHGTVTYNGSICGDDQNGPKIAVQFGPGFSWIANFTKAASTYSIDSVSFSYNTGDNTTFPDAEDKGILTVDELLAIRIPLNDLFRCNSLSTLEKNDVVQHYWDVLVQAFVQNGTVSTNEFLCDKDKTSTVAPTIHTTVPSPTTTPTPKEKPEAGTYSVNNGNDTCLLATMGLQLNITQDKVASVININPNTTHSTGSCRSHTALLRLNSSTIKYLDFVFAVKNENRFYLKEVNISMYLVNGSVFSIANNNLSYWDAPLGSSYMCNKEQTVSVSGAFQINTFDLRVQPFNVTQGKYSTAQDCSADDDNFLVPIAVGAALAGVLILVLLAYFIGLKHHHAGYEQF

Columns and labels:
[1] = biological target: SOCS2-GFP (human suppressor of cytokine signaling 2 fused to green fluorescent protein) (human) (UniProt O14508); experiment: co-IP; ARPE-19 cells transiently transfected with GFP control vectors or SOCS2-GFP plasmids, starved; which protein was precipitated is not told; no methods for the immunoprecipitation
[2] = biological target: lysosome-associated membrane protein2 (LAMP2) (human (endogenous in ARPE-19)) (UniProt P13473); experiment: proximity ligation; Duolink in situ fluorescence on serum-starved ARPE-19 cells fixed with 4% paraformaldehyde; endogenous proteins, antibodies to SOCS2 and to ubiquitin or LAMP2; negative group without antibodies

Row | Substance | binding [1] | binding [2]
1 | sequestosome 1 (SQSTM1/p62) (from UniProt Q13501 1-440) | binds | 
2 | suppressor of cytokine signaling 2 (SOCS2), endogenous (from UniProt O14508 1-198) |  | binds
